Structures were worked out from names or drawings and are uncertain.
Tests used:
Human HDAC1 = Human HDAC1 (Homo sapiens, UniProt Q13547); assay: HDAC1 biochemical assay, AMC-labeled peptide substrate; settings: read-out: HDAC Isoform IC50 (nM) 1
Recombinant human HDAC6 = Recombinant human HDAC6 (Homo sapiens, UniProt Q9UBN7); assay: HDAC6 biochemical assay, AMC-labeled peptide substrate; settings: read-out: HDAC Isoform IC50 (nM) 6
Human HDAC9 = Human HDAC9 (Homo sapiens, UniProt Q9UKV0); assay: HDAC9 biochemical assay, class IIa-specific substrate; settings: read-out: HDAC Isoform IC50 (nM) 9
Human HDAC7 = Human HDAC7 (Homo sapiens, UniProt Q8WUI4); assay: HDAC7 biochemical assay, class IIa-specific substrate; settings: read-out: HDAC Isoform IC50 (nM) 7
Human HDAC8 = Human HDAC8 (Homo sapiens, UniProt Q9BY41); assay: HDAC8 biochemical assay, AMC-labeled peptide substrate; settings: read-out: HDAC Isoform IC50 (nM) 8
Human HDAC11 = Human HDAC11 (Homo sapiens, UniProt Q96DB2); assay: HDAC11 biochemical assay, class IIa-specific substrate; settings: read-out: HDAC Isoform IC50 (nM) 11
Human HDAC5 = Human HDAC5 (Homo sapiens, UniProt Q9UQL6); assay: HDAC5 biochemical assay, class IIa-specific substrate; settings: read-out: HDAC Isoform IC50 (nM) 5
Human HDAC10 = Human HDAC10 (Homo sapiens, UniProt Q969S8); assay: HDAC10 biochemical assay, AMC-labeled peptide substrate; settings: read-out: HDAC Isoform IC50 (nM) 10
[1] = biological target: Complex of human HDAC3 and human NCOR2 (Homo sapiens, UniProt O15379); assay: HDAC3 biochemical assay, AMC-labeled peptide substrate; settings: read-out: HDAC Isoform IC50 (nM) 3
Human HDAC4 = Human HDAC4 (Homo sapiens, UniProt P56524); assay: HDAC4 biochemical assay, class IIa-specific substrate; settings: read-out: HDAC Isoform IC50 (nM) 4
Human HDAC2 = Human HDAC2 (Homo sapiens, UniProt Q92769); assay: HDAC2 biochemical assay, AMC-labeled peptide substrate; settings: read-out: HDAC Isoform IC50 (nM) 2

Protein sequences, listed by entry. Tags and fused reporters are not part of them. Residues count along the entry.
UniProt Q13547, whole entry: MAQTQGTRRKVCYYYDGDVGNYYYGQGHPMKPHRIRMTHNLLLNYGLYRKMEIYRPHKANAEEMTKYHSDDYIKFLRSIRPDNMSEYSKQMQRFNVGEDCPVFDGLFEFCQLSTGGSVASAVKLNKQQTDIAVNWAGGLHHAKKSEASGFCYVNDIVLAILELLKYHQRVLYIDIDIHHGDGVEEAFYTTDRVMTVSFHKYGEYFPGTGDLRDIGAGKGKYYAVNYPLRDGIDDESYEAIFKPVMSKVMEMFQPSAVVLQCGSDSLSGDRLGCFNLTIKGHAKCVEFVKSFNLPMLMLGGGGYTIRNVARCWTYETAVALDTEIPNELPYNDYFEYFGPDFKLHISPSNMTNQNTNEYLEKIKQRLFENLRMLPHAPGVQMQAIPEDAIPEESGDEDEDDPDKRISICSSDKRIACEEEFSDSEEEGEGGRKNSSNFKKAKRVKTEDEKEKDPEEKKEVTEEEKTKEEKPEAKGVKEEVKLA
UniProt Q9UBN7, whole entry: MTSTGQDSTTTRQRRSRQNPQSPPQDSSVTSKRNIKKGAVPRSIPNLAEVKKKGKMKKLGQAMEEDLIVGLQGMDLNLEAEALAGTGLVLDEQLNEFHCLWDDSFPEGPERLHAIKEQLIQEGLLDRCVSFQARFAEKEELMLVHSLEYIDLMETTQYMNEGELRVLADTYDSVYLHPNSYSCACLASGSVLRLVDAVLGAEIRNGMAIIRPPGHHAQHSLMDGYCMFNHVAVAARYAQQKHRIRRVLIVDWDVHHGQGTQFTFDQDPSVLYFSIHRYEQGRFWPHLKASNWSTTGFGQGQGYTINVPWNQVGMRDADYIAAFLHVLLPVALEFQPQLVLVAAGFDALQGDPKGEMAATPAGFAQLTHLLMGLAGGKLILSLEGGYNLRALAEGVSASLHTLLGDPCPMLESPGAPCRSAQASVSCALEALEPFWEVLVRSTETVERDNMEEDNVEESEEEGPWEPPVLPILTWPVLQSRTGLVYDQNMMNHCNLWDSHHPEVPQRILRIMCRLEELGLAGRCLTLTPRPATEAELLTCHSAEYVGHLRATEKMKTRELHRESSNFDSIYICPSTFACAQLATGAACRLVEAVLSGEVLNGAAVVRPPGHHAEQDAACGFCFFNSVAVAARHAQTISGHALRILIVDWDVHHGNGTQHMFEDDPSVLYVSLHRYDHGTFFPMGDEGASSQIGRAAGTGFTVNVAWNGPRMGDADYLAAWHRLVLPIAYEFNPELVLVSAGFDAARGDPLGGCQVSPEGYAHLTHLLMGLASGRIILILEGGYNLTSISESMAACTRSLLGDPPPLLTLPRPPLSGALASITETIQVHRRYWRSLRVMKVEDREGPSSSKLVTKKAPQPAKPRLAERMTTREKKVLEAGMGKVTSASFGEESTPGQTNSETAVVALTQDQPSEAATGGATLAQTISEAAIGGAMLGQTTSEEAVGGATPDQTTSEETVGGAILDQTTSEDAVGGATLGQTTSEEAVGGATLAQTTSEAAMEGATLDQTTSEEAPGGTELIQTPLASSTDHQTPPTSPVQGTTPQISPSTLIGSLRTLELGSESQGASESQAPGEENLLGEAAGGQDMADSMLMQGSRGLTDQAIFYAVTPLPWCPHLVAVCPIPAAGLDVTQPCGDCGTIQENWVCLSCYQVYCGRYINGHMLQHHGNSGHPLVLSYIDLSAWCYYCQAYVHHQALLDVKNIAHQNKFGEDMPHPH
UniProt Q9UKV0, 604-1066 isoform 5 limits assumed: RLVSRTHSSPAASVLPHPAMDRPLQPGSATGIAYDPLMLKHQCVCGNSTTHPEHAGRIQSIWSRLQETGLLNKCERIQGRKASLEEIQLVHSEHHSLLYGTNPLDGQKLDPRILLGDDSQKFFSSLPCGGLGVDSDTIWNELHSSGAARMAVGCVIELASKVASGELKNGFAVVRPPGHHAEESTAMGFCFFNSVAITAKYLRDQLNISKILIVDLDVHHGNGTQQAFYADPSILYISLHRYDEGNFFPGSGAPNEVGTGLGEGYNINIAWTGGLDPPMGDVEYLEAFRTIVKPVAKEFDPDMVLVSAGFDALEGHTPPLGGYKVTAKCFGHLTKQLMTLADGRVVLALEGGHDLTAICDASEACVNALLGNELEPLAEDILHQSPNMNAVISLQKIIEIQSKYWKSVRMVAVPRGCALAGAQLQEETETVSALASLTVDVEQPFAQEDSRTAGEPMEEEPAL
UniProt Q8WUI4, 518-952 limits assumed: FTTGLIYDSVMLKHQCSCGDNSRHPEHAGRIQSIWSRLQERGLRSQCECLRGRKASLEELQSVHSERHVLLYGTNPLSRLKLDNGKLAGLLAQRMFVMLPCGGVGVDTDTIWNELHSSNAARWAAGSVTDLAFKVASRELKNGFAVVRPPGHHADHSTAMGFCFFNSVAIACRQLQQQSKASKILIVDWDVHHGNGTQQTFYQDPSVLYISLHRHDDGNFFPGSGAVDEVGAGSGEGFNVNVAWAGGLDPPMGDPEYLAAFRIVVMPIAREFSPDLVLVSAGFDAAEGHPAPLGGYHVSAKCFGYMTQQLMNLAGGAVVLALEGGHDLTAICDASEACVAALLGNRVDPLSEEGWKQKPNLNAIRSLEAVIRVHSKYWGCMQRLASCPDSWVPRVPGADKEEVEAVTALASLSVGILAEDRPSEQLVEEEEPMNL
UniProt Q9BY41, whole entry: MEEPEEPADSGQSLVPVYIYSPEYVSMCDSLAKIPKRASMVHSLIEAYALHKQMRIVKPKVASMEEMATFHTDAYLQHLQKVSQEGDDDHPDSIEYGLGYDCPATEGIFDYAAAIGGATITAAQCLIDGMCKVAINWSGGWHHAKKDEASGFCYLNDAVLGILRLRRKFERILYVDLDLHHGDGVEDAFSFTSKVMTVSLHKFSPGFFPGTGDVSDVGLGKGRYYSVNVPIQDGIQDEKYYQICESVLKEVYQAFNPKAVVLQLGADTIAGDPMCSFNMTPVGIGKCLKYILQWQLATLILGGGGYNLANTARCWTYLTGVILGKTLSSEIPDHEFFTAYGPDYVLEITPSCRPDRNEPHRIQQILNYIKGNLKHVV
UniProt Q96DB2, whole entry: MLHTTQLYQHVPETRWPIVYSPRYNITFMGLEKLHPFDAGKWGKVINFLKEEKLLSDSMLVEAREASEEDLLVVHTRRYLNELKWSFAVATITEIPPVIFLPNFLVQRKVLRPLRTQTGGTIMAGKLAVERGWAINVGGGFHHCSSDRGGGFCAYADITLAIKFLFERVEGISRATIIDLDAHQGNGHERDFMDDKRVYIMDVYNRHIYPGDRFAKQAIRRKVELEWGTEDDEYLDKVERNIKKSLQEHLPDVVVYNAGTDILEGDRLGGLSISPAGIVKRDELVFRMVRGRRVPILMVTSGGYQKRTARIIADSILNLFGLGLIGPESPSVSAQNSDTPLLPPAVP
UniProt Q9UQL6, 656-1122 limits assumed: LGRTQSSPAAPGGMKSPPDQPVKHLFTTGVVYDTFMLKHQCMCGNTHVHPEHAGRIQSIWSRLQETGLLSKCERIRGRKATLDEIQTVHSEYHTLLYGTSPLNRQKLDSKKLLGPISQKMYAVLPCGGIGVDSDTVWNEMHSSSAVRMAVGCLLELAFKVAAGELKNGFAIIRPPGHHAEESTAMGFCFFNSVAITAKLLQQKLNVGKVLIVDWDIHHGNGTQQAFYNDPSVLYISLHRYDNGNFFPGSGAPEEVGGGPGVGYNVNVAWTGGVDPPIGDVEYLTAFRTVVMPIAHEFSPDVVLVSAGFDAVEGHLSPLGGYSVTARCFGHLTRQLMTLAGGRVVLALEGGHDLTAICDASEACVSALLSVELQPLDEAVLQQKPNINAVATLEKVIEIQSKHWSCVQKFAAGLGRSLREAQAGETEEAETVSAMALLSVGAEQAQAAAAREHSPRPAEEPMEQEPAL
UniProt Q969S8, 1-481 limits assumed: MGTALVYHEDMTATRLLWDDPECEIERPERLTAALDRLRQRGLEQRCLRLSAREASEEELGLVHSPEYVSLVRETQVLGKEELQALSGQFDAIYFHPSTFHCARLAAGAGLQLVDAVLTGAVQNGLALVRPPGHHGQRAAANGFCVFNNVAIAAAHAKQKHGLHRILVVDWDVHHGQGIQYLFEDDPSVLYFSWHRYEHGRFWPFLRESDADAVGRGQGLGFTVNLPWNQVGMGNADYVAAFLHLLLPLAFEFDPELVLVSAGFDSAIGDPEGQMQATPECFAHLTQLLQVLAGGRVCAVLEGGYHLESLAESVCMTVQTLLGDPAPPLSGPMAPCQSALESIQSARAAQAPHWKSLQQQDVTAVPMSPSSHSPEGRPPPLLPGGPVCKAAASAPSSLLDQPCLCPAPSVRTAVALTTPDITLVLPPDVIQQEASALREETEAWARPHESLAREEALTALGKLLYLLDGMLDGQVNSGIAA
UniProt O15379, whole entry: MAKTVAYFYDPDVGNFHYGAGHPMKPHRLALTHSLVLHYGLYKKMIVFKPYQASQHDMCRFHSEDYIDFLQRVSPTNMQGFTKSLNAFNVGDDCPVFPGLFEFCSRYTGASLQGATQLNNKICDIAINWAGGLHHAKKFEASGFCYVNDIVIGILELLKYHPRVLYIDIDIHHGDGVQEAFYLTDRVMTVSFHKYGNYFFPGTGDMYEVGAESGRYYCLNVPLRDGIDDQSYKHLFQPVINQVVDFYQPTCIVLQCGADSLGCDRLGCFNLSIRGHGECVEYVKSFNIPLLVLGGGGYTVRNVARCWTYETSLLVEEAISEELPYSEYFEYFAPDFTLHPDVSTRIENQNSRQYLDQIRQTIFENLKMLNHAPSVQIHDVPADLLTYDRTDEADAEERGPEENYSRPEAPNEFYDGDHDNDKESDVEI
UniProt P56524, 627-1084 limits assumed: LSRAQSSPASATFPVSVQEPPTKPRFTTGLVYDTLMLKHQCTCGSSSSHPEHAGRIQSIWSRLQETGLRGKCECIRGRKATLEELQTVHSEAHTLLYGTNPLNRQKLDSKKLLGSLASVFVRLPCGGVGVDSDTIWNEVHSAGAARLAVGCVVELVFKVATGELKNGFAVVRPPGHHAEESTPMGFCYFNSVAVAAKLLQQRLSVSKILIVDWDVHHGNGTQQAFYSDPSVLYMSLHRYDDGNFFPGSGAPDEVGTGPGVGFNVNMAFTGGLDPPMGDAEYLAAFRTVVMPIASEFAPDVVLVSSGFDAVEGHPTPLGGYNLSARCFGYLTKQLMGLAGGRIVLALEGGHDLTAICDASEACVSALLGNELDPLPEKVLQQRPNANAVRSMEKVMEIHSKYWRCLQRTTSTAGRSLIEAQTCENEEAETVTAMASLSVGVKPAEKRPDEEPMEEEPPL
UniProt Q92769, whole entry: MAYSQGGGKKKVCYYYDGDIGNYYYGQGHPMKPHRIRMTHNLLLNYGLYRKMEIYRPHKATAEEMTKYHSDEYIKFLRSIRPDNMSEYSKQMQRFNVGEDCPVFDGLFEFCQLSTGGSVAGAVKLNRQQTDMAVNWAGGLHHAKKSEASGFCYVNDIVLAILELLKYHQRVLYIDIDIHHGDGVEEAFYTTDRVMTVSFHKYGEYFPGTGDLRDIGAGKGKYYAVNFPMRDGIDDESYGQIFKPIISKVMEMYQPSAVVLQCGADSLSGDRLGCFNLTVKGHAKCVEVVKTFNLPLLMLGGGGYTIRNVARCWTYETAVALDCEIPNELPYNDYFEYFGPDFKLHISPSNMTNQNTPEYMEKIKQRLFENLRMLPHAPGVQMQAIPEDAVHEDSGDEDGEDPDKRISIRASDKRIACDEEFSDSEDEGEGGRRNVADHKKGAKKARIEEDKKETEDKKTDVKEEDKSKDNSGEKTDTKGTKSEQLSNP
UniProt Q9Y618, 395-489 partner limits assumed: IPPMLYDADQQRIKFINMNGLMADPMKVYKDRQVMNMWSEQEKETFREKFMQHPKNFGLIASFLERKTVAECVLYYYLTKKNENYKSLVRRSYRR

For FC(F)(F)c1nc(-c2ccc(CN(c3cnccn3)c3ncccc3C(F)(F)F)s2)no1, the IC50 (Human HDAC1) was greater than 10000 nM, the IC50 (Recombinant human HDAC6) was less than 10000 nM and the IC50 (Human HDAC9) was less than 10000 nM. It also gave an IC50 (Human HDAC7) of less than 10000 nM, an IC50 (Human HDAC8) greater than 10000 nM and an IC50 (Human HDAC11) greater than 10000 nM. For the same compound, the IC50 (Human HDAC5) was less than 1000 nM, the IC50 (Human HDAC10) was greater than 10000 nM and the IC50 [1] was greater than 10000 nM. For the same compound, the IC50 (Human HDAC4) was less than 1000 nM and the IC50 (Human HDAC2) was greater than 10000 nM.
